Experimental data: the supplement of paper PMC10849652
The list shows a part of the results.

Protein sequences, listed by entry. Tags and fused reporters are not part of them. Lines headed by an entry give the natural chain unless they say otherwise; changes in a name come on top.
UniProt P28908: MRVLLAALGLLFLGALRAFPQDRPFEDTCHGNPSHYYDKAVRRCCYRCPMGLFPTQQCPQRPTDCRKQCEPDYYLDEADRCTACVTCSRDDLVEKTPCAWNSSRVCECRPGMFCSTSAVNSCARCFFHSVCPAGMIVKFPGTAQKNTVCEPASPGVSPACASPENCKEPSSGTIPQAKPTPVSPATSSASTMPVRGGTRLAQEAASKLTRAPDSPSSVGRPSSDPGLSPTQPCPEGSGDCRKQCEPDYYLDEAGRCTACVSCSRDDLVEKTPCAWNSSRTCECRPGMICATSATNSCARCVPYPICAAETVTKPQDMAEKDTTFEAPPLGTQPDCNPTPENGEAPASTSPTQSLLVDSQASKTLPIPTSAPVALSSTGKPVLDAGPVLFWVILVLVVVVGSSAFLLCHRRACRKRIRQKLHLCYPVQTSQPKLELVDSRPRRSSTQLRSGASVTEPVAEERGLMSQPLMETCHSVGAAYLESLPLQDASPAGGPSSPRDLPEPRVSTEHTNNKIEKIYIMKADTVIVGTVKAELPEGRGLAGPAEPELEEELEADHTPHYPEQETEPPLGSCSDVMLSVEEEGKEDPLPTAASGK
UniProt Q9BTV4: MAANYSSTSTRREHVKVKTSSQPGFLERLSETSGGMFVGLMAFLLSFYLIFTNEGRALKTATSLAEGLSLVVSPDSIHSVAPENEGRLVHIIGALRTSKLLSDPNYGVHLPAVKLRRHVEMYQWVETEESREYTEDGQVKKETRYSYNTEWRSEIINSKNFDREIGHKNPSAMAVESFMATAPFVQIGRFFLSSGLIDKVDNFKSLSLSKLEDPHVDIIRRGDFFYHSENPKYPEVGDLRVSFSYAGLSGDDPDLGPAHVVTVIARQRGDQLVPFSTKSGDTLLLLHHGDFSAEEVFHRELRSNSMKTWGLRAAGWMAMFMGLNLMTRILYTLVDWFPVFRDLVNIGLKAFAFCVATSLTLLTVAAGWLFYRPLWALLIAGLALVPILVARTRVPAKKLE
UniProt A0PJW6: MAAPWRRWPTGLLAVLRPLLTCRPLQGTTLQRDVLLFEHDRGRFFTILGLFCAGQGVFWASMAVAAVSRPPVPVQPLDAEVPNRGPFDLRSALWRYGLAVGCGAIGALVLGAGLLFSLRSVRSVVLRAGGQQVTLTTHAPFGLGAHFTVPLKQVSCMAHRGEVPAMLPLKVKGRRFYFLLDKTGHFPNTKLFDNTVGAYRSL
UniProt P57088: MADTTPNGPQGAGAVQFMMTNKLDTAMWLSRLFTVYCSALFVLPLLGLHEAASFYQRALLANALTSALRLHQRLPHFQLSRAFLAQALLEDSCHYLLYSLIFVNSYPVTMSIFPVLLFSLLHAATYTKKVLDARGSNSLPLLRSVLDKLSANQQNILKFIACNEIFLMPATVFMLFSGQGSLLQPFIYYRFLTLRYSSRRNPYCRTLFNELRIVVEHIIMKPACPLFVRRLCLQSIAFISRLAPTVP
UniProt Q92973: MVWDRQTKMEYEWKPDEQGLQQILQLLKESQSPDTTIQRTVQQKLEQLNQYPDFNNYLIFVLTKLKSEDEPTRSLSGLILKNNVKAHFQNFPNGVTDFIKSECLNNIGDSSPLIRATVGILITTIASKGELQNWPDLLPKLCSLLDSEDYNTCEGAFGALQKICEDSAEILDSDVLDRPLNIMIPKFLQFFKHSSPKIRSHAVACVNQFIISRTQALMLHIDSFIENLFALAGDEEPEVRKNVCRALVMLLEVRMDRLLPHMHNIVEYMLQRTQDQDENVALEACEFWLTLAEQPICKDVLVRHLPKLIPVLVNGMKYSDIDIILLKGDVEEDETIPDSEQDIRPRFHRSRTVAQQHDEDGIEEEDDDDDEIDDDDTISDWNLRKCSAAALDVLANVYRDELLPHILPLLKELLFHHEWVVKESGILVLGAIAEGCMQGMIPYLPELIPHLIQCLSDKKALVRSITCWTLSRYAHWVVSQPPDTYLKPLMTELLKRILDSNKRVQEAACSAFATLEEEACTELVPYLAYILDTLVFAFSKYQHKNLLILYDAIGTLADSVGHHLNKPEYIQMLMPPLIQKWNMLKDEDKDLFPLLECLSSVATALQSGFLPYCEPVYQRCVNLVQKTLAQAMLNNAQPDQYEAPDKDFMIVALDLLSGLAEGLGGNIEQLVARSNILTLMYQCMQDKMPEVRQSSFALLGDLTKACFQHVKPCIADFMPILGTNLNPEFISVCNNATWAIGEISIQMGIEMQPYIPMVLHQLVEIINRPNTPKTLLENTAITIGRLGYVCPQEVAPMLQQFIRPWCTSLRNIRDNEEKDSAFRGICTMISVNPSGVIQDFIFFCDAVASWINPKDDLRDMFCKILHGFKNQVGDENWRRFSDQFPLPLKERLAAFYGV
UniProt Q9NZR1: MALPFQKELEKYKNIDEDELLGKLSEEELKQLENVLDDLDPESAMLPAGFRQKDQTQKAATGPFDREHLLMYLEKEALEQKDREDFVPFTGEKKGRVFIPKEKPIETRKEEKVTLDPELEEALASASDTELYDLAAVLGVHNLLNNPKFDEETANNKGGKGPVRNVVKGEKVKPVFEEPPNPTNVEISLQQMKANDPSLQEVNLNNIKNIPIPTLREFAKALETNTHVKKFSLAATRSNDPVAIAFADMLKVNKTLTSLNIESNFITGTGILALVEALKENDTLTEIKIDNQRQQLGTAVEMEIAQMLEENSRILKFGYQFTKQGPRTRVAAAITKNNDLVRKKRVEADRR
UniProt Q9NVH6: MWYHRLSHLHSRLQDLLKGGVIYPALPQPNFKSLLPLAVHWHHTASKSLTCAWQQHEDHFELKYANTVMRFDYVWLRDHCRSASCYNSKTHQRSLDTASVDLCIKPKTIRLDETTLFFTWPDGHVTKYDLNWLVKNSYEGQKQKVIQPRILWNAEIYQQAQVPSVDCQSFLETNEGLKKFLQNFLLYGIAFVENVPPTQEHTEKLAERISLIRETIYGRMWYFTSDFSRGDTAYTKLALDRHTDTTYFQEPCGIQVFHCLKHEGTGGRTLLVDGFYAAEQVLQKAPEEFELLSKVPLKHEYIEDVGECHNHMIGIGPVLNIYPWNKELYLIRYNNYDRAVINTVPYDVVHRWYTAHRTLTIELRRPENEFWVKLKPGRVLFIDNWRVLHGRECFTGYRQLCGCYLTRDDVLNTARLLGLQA
UniProt P62995: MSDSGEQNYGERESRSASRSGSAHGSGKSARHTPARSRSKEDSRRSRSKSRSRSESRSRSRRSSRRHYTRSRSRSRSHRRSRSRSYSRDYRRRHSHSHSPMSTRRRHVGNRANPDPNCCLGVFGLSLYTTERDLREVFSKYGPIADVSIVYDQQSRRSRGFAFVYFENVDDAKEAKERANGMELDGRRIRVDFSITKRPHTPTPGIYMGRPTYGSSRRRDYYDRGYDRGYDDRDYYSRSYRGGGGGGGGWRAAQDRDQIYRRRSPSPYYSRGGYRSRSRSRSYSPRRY
UniProt Q8NCS4: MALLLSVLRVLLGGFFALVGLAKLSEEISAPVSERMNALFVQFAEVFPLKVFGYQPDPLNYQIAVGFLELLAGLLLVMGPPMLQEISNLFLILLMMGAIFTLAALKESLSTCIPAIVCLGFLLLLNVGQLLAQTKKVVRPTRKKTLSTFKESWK
UniProt Q5SWH9: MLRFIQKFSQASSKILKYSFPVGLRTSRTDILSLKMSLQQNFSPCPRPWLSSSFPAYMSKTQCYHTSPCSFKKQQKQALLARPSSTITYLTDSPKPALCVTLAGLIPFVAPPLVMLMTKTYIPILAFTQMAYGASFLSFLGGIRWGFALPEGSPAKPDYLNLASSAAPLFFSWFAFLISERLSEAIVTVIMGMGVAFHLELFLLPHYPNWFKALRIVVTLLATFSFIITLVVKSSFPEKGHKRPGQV
UniProt P06753, whole entry, looked up: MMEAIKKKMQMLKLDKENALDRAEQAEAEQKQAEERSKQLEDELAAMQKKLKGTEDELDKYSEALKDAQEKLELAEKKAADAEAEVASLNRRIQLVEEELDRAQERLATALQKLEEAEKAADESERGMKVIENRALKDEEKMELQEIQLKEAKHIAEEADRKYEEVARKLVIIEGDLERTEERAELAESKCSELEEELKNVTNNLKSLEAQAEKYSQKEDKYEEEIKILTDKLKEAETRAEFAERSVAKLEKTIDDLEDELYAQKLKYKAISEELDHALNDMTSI
UniProt Q9P0T7: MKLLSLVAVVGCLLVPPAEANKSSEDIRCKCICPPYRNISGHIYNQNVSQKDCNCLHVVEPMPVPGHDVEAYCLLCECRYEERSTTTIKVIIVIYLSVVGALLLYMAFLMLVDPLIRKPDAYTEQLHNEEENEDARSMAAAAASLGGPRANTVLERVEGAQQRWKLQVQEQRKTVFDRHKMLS
UniProt Q13641: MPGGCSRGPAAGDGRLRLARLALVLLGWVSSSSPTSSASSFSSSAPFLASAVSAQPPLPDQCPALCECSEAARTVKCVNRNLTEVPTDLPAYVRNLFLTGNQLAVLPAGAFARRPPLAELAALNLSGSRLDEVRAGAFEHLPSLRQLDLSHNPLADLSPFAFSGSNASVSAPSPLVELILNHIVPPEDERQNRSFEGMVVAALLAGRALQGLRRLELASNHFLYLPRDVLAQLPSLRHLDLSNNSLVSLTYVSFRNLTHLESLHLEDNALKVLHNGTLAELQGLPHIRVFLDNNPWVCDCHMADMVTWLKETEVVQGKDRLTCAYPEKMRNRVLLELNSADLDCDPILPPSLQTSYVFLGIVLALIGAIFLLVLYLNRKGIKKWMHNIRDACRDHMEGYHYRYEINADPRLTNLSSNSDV
UniProt O75674: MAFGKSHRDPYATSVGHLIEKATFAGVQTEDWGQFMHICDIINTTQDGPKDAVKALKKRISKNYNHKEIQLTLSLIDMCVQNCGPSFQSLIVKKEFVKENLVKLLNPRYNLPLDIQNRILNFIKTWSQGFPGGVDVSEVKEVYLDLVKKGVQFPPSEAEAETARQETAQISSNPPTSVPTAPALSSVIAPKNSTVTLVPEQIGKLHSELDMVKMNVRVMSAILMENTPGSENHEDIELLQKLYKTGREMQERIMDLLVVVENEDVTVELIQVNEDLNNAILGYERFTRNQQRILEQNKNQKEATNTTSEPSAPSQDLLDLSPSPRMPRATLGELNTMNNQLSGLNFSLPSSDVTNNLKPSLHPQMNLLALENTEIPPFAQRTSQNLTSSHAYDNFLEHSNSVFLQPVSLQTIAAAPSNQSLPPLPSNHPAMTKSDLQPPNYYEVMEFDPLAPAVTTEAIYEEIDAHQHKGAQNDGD
UniProt Q9UKE5: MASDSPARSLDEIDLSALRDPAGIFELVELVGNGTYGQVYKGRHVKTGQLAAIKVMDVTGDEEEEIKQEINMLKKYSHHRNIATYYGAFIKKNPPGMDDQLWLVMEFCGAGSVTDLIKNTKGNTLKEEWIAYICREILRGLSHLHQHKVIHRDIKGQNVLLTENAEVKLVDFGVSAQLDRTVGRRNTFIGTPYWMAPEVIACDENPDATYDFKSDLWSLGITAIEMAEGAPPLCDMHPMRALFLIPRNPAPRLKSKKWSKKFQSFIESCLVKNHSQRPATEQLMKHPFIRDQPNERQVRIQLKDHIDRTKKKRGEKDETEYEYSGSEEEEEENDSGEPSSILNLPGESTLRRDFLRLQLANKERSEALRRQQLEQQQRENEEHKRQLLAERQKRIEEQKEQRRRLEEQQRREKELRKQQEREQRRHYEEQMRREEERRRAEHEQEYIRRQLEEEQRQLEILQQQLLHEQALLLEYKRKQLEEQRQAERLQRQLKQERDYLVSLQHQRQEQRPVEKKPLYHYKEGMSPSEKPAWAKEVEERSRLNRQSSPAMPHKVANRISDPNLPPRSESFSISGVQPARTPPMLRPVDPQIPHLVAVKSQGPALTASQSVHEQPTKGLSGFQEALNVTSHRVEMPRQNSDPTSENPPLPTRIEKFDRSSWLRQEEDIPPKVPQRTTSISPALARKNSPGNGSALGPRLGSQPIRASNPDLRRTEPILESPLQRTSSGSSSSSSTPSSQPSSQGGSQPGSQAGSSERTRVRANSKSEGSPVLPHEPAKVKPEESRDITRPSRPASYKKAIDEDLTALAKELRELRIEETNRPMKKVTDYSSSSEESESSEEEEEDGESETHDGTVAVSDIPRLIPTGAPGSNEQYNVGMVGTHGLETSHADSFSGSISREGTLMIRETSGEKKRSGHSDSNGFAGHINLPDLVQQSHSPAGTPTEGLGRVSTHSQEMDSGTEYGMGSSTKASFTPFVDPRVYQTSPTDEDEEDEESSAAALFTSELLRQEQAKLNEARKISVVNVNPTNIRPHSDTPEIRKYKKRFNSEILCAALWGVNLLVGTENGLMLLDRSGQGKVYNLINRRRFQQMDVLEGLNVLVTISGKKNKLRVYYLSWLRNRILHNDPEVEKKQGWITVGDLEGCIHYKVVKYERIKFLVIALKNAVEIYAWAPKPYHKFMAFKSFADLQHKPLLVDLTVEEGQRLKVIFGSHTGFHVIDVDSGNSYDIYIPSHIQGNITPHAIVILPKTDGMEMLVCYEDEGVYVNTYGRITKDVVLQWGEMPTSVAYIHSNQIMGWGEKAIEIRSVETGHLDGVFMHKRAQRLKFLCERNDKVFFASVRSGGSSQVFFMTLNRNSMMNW

Columns and labels:
Assay in all cases: log2 fold change, soluble protein after heating vs DMSO (PISA); higher = thermal stabilisation; K562 lysate, 10 uM; active = over 0.2 and 3.5 SD of the protein, either way, in both replicates (recomputed)
[1] = compound: NCC(=O)Nc1ccc(-n2nc(C(F)(F)F)cc2-c2ccc3c(ccc4ccccc43)c2)cc1
Summary of the method: (§1)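 Pellets of K562 cells were dounce-homogenised in PBS pH 7.4 with 1 mM MgCl2, and the crude extract was held at 1 mg/mL protein for a 30 min treatment with 10 μM compound. Aliquots were heated for 3 min over 48°C-58°C and pooled before NP-40 was added to 0.5% at 4°C. The supernatant from 21,000xg for 90 min was quantified by TMTpro 16plex LC-MS/MS with channel sums equalised. Values are reported from duplicates as log-two fold change in thermal stability relative to solvent controls.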

vorinostat = compound: O=C(CCCCCCC(=O)Nc1ccccc1)NO [vorinostat]
Summary of the method: as §1

silmitasertib = compound: O=C(O)c1ccc2c(c1)nc(Nc1cccc(Cl)c1)c1ccncc12 [silmitasertib]
Summary of the method: as §1

[2] = compound: O=C1NC(=O)C(c2cnc3ccccn23)=C1c1cn2c3c(cc(F)cc13)CN(C(=O)N1CCCCC1)CC2
Summary of the method: as §1

entospletinib = compound: c1cn2cc(-c3ccc4cn[nH]c4c3)nc(Nc3ccc(N4CCOCC4)cc3)c2n1 [entospletinib]
Summary of the method: as §1

Measured: log2 fold change

TNFRSF8 (UniProt P28908)
inactive: [1] 0.074 | vorinostat 0.065 | silmitasertib -0.005 | [2] -0.05 | entospletinib -0.012

TOE1 (UniProt Q96GM8)
active: vorinostat -0.359
inactive: [1] -0.003 | silmitasertib 0.041 | [2] 0.002 | entospletinib 0.043

TOR2A (UniProt Q5JU69)
inactive: [1] -0.012 | vorinostat -0.004 | silmitasertib 0.033 | [2] 0.03 | entospletinib 0.062

TMEM43 (UniProt Q9BTV4)
inactive: [1] -0.006 | vorinostat 0.138 | silmitasertib -0.009 | [2] -0.015 | entospletinib -0.041

TMEM245 (UniProt Q9H330)
inactive: [1] 0.012 | vorinostat 0.089 | silmitasertib -0.006 | [2] -0.005 | entospletinib -0.052

TMPO (UniProt P42167)
inactive: [1] 0.021 | vorinostat 0.104 | silmitasertib 0.012 | [2] -0.032 | entospletinib -0.031

TOLLIP (UniProt Q9H0E2)
inactive: [1] -0.015 | vorinostat -0.193 | silmitasertib 0.045 | [2] 0.115 | entospletinib -0.007

TMEM223 (UniProt A0PJW6)
inactive: [1] -0.064 | vorinostat -0.22 | silmitasertib 0.105 | [2] -0.193 | entospletinib -0.159

TMEM33 (UniProt P57088)
inactive: [1] -0.039 | vorinostat 0.014 | silmitasertib -0.024 | [2] -0.05 | entospletinib 0.017

TNPO1 (UniProt Q92973)
inactive: [1] -0.024 | vorinostat -0.169 | silmitasertib 0.008 | [2] 0.005 | entospletinib 0.039

TMEM19 (UniProt Q96HH6)
inactive: [1] -0.231 | vorinostat -0.024 | silmitasertib 0.136 | [2] -0.165 | entospletinib 0.081

TMOD2 (UniProt Q9NZR1)
inactive: [1] 0.036 | vorinostat 0.084 | silmitasertib 0.044 | [2] 0.121 | entospletinib -0.011

TMEM63A (UniProt O94886)
inactive: [1] 0.029 | vorinostat 0.073 | silmitasertib 0.026 | [2] -0.013 | entospletinib -0.009

TMEM9B (UniProt Q9NQ34)
inactive: [1] 0.111 | vorinostat -0.135 | silmitasertib 0.038 | [2] -0.007 | entospletinib -0.125

TMEM259 (UniProt Q4ZIN3)
inactive: [1] -0.011 | vorinostat -0.102 | silmitasertib 0.154 | [2] 0.004 | entospletinib 0.013

TMEM41A (UniProt Q96HV5)
inactive: [1] 0.069 | vorinostat 0.08 | silmitasertib -0.034 | [2] -0.094 | entospletinib 0.041

TMEM263 (UniProt Q8WUH6)
inactive: [1] 0.053 | vorinostat 0.289 | silmitasertib -0.15 | [2] -0.113 | entospletinib -0.034

TMLHE isoform 8 (UniProt Q9NVH6)
inactive: [1] 0.018 | vorinostat -0.117 | silmitasertib -0.002 | [2] 0.055 | entospletinib -0.048

TPRG1L (UniProt Q5T0D9)
inactive: [1] -0.158 | vorinostat 0.132 | silmitasertib -0.026 | [2] 0.153 | entospletinib -0.13

TP53BP2 isoform 3 (UniProt Q13625)
inactive: [1] -0.029 | vorinostat -0.116 | silmitasertib -0.003 | [2] 0.018 | entospletinib 0

TRA2B (UniProt P62995)
inactive: [1] 0.07 | vorinostat 0.006 | silmitasertib -0.015 | [2] -0.032 | entospletinib -0.007

TMEM35B (UniProt Q8NCS4)
inactive: [1] 0.067 | vorinostat 0.092 | silmitasertib 0.225 | [2] 0.074

TPM1 isoform 4 (UniProt P09493)
inactive: [1] -0.053 | vorinostat 0.052 | silmitasertib -0.03 | [2] -0.041 | entospletinib 0.006

TMEM69 (UniProt Q5SWH9)
inactive: [1] -0.111 | vorinostat -0.042 | silmitasertib -0.089 | [2] 0.05 | entospletinib 0.115

TMPO (UniProt P42166)
active: vorinostat -0.569
inactive: [1] 0.037 | silmitasertib -0.057 | [2] 0.009 | entospletinib -0.029

TNFAIP8 isoform 4 (UniProt O95379)
inactive: [1] 0.097 | vorinostat -0.048 | silmitasertib 0.035 | [2] -0.04 | entospletinib 0.017

TPM4 isoform 2 (UniProt P67936)
inactive: [1] 0.02 | vorinostat 0.082 | silmitasertib -0.016 | [2] -0.014 | entospletinib 0.02

TNRC6B (UniProt Q9UPQ9)
inactive: [1] 0.004 | vorinostat 0.003 | silmitasertib -0.062 | [2] -0.001 | entospletinib -0.029

TOR1AIP1 (UniProt Q5JTV8)
inactive: [1] -0.042 | vorinostat 0.194 | silmitasertib 0.069

TPM3 isoform 3 (UniProt P06753)
inactive: [1] -0.111 | vorinostat 0.048 | silmitasertib -0.047 | [2] -0.15 | entospletinib -0.024

TPP1 (UniProt O14773)
inactive: [1] 0.008 | vorinostat 0.078 | silmitasertib -0.004 | [2] -0.002 | entospletinib -0.003

TMEM65 (UniProt Q6PI78)
inactive: [1] -0.042 | vorinostat 0.131 | silmitasertib 0.016 | [2] -0.024 | entospletinib -0.04

TMEM9 (UniProt Q9P0T7)
inactive: [1] 0.018 | vorinostat 0.043 | silmitasertib 0.116 | [2] 0.002

TPBG (UniProt Q13641)
inactive: [1] 0.146 | vorinostat 0.135 | silmitasertib -0.055 | [2] 0.092 | entospletinib -0.087

TOM1 isoform 2 (UniProt O60784)
inactive: [1] 0.017 | vorinostat 0.085 | silmitasertib 0 | [2] -0.018 | entospletinib -0.061

TRADD (UniProt Q15628)
inactive: [1] 0.034 | vorinostat -0.284 | silmitasertib 0.021 | [2] -0.029 | entospletinib 0.059

TMUB1 (UniProt Q9BVT8)
inactive: [1] -0.128 | vorinostat 0.075 | silmitasertib -0.128 | [2] 0.029 | entospletinib 0.049

TPP2 (UniProt Q5VZU9)
inactive: [1] -0.125 | vorinostat -0.173 | silmitasertib 0.044 | [2] 0.002 | entospletinib 0.109

TOM1L2 (UniProt Q6ZVM7)
inactive: [1] -0.029 | vorinostat 0.059 | silmitasertib -0.013 | [2] -0.006 | entospletinib 0.017

TMEM219 (UniProt Q86XT9)
inactive: [1] 0.052 | vorinostat 0.059 | silmitasertib 0.04 | [2] 0.025 | entospletinib 0.069

TOM1L1 (UniProt O75674)
inactive: [1] 0.008 | vorinostat 0.099 | silmitasertib -0.027 | [2] -0.01 | entospletinib 0.014

TNIK isoform 4 (UniProt Q9UKE5)
inactive: [1] -0.019 | vorinostat -0.135 | silmitasertib 0.004 | [2] -0.114 | entospletinib 0.208

TOP1 (UniProt P11387)
inactive: [1] -0.051 | vorinostat 0.058 | silmitasertib 0.037 | [2] 0.019 | entospletinib 0.033

TMPPE (UniProt Q6ZT21)
inactive: [1] 0.023 | vorinostat 0.059 | silmitasertib -0.007 | [2] -0.028 | entospletinib 0.004

2 consecutive records from above, for reference:
TOP1 (UniProt P11387)
inactive: [1] -0.051 | vorinostat 0.058 | silmitasertib 0.037 | [2] 0.019 | entospletinib 0.033

TMPPE (UniProt Q6ZT21)
inactive: [1] 0.023 | vorinostat 0.059 | silmitasertib -0.007 | [2] -0.028 | entospletinib 0.004

Next entries

TMEM214 (UniProt Q6NUQ4)
inactive: [1] 0.045 | vorinostat -0.04 | silmitasertib 0.081 | [2] 0.029 | entospletinib 0.042

TP53I3 (UniProt Q53FA7)
inactive: [1] -0.099 | vorinostat 0.085 | silmitasertib -0.03 | [2] -0.032 | entospletinib 0.02

TPST2 (UniProt O60704)
inactive: [1] 0.045 | vorinostat 0.132 | silmitasertib -0.03 | [2] -0.048 | entospletinib 0.016

TOP2B isoform 2 (UniProt Q02880)
inactive: [1] -0.027 | vorinostat -0.061 | silmitasertib 0.034 | [2] 0.022 | entospletinib -0.005

TNFAIP2 (UniProt Q03169)
inactive: [1] 0.13 | vorinostat 0.133 | silmitasertib -0.051 | [2] 0.057 | entospletinib 0.025

TPX2 (UniProt Q9ULW0)
active: vorinostat -0.498
inactive: [1] 0.003 | silmitasertib -0.04 | [2] 0.009 | entospletinib 0.015

TPM4 (UniProt P67936)
inactive: [1] -0.001 | vorinostat 0.166 | silmitasertib -0.018 | [2] -0.023 | entospletinib 0.048

TNFRSF10A (UniProt O00220)
inactive: [1] -0.003 | vorinostat 0.086 | silmitasertib 0.009 | [2] -0.01 | entospletinib 0.05

TNIK (UniProt C9J338)
inactive: [1] 0.195 | vorinostat 0.103 | silmitasertib -0.023 | [2] 0.006 | entospletinib -0.049
